Experimental data reported in PMC4594037.
These are yes or no findings as the source states them, for the method shown. In cells and extracts the contact can be indirect. Some results given as binding are weak or reduced against the parent protein; the word gives no strength.

Protein sequences, listed by entry. Tags and fused reporters are not part of them.
UniProt Q62048: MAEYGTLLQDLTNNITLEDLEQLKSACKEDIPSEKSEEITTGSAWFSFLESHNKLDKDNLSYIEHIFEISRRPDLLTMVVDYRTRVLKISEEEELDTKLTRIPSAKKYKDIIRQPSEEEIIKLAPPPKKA
UniProt P18654: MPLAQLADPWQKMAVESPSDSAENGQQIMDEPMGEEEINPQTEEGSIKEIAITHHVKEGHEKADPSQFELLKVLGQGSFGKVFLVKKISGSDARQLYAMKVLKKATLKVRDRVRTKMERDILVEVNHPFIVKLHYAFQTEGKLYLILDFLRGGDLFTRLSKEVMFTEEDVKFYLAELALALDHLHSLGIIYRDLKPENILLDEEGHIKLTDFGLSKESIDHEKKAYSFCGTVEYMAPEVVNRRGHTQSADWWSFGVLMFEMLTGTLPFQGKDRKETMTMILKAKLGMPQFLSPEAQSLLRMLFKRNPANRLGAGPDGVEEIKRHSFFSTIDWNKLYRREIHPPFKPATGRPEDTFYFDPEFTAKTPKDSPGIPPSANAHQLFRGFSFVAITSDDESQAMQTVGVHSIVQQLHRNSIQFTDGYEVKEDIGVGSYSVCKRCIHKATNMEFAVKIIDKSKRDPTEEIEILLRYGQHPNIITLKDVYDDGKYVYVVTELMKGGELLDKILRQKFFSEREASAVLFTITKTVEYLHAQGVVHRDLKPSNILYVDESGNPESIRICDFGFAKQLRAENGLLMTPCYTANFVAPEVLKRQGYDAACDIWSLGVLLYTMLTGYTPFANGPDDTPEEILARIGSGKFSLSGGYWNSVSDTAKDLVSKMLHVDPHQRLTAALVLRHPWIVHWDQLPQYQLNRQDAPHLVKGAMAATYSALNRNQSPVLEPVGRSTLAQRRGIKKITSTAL
UniProt P63085: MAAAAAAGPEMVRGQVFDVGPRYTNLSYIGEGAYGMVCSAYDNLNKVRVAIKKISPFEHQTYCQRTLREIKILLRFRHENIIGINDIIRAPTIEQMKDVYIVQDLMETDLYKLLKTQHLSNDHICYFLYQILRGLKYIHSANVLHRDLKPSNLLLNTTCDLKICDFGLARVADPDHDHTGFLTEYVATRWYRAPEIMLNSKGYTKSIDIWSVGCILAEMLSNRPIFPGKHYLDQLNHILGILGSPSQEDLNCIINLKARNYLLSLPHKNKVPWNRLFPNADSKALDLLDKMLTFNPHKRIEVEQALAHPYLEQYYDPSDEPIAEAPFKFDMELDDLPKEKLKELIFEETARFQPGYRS
UniProt Q63844: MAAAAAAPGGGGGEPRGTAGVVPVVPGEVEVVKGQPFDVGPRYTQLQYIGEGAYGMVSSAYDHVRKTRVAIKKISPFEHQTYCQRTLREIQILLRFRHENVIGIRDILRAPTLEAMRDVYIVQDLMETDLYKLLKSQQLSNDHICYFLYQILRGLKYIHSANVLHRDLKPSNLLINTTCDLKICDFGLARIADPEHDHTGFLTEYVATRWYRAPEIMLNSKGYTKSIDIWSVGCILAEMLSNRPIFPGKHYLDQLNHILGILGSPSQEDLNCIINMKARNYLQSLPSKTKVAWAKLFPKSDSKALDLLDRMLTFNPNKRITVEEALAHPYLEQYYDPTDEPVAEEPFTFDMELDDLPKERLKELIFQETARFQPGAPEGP

B1: PLD1 (enzyme, UniProt Q9Z280 1-1074)
chain: MSLKSETRVNTSTLQKIAADMSNLIENLDTRELHFEGEEVEYDASPGDPKAQEGCIPFSSIYNTQGFKEPNIQTYLSGCPIKAQVLEVERFTSTSRVPSINLYTIELTHGEFTWQVKRKFKHFQEFHRELLKYKAFIRIPIPTKRHTFRRQNVKEEPREMPSLPRSSENAIQEEQFFGRRKQLEDYLTKILKMPMYRNYHATTEFLDVSQLSFIHDLGPKGLEGMIMKRSGGHRIPGVNCCGHGRACYRWSKRWLIVKDSFLLYMKPDSGAIAFVLLVDKEFRVKVGRKETETKYGLRIDNLSRTLILKCNSYRHARWWGGAIEEFIRKHGADFLKDHRFGSYAALHENTLAKWYVNAKGYFEDIANAMEEASEEIFITDWWLSPEIFLKRPVVEGNRWRLDCILKRKAQQGVRIFIMLYKEVELALGINSEYSKRTLMRLHPNIKVMRHPDHVSSSVYLWAHHEKLVIIDQSVAFVGGIDLAYGRWDDNEHRLTDVGSVKRVTSGLSLGSLTAASVESMESLSLKDKHEFHKKEPISKIVDETDMKLKGIGKSRKFSKFSLYRQLHRHHLHNADSISSIDSTSSYFSHCRSHQNLIHGLKPHLKLFHPSSESEQGLTRHSTDTGSIRSVQTGVGELHGETRFWHGKDYCNFVFKDWVQLDKPFADFIDRYSTPRMPWHDIGSVVHGKAARDVARHFIQRWNFTKIMKPKYRSLSYPFLLPKSQATAHELRYQVPGAVPAKVQLLRSAADWSAGIKHHEESIHAAYIHVIENSKHYIYIENQFFISCADDKVVFNKVGDRIAQRILKAHREGQRYRVYIVIPLLPGFEGDISTGGGNALQAIMHFNYRTMCRGESSILEQLKPELGNKWINYISFCGLRTHAELEGNLVTELIYVHSKLLIADDNTVIIGSANINDRSMLGKRDSEMAVIVQDTETVPSVMDGKEYQAGRFARDLRLECFRLVLGYLSDPSEDLQDPVSDKFFKEIWVSTAARNATIYDKVFRCLPNDEVHNLIQLRDFINKPILAKEDALRAEEELRKIRGFLVQFPLYFLSEENLLPSVGTKEAIVPMEVWT

Target: PEA15 (mouse (endogenous in cortical neurons)) (UniProt Q62048)
Assay: co-IP; endogenous PEA15 immunoprecipitated from lysates of 3 DIV mouse cortical neurons, untreated or treated 15 min with 100 ng/mL BDNF; 500 ug total protein; lysis buffer 50 mM Hepes, 3 mM EGTA, 3 mM CaCl2, 3 mM MgCl2, 80 mM KCl, 0.1% Triton X-100, 0.1% sodium deoxycholate; blots with anti-PLD1, anti-RSK2, anti-ERK1/2

Molecule	binding
RSK2 (from UniProt P18654 1-740) (enzyme)	binds
ERK2 (from UniProt P63085 1-358) (enzyme)	binds
ERK1 (from UniProt Q63844 1-380) (enzyme)	binds
B1	binds
